The values are deposited in ChEMBL (CHEMBL3988442, “University of Dundee, Small-Polar-MMV Screening Library” (2021)).

A: 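Growth of Mycobacterium tuberculosis over 3 days (7H9 medium with glucose and tyloxapol); the read-out is not stated. Compounds at 500 µM. The record gives no direction; compounds that gave an IC50 in retests scored well above the rest, so higher reads as more growth inhibition. Size under these conditions: about 18,000 compounds, about 1,400 of them at 50% or above in at least one test.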
B: 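Phenotypic screen: M. tuberculosis growth, cholesterol and DPPC medium, 4 days; the read-out is not stated. Compounds at 500 µM. Direction is inferred from retests: higher values go with more growth inhibition. Of about 18,000 compounds tested this way, about 900 (5%) reached 50% or more in at least one test.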

Each number is a percent effect as filed. The record does not define 0% and 100%; most values in the screen are far below 50% and negative numbers occur (in some assays of this library far below -100). This is an unselected part of the compounds tested.

* CN(CCc1ccc(Br)cc1)C(=O)CCCN | A: 70.64%; B: 46.93%
* CCOc1ccncc1S(N)(=O)=O | A: 10.11%; B: 5.806%
* CCO[C@H]1CN(c2nc(-c3ccccc3)no2)C[C@@H]1O | A: 56.96%; B: 41.46%
* Clc1ccc(CSc2cnn[nH]2)s1 | A: 73.44%; B: 89.09%
* Cc1cccnc1N(C)C(=O)c1cc(C#N)oc1C | A: 12.72%; B: -6.24%
* COCC(N)Cc1ccccc1 (configuration not stated) | A: 3.795%; B: 3.527%
* NCc1ccc(Br)o1 | A: 2.893%; B: 0.6447%
* CNC(=O)C1CCCN(C(=O)C(C)(C)C)C1 (configuration not stated) | A: -3.448%; B: -5.71%
* C[C@@H](N)C(=O)NCc1cc2cc(Cl)ccc2[nH]1 | A: 22.03%; B: -0.6733%
* COCCC(=O)Nc1cccnc1OC1CCN(C)C1 (configuration not stated) | A: 12.71%; B: 8.069%
* CC(=O)c1ccc(C(C)(C)O)cc1 | A: 4.058%; B: -5.944%
* OC1CCN(Cc2cccc(F)c2F)CC1 | A: 8.265%; B: 5.072%
* Clc1ccc(CN2CCNCC2)nc1 | A: 19.97%; B: 4.667%
* O=S(=O)(Cc1ccccc1C(F)(F)F)CC(O)CO (configuration not stated) | A: 1.153%; B: 3.367%
* COc1ccc(C(=O)NC2CCN(C)CC2)c(OC)c1 | A: 2.264%; B: 1.615%
* COc1c(Cl)cc(NC(=O)C2COCCN2)cc1Cl (configuration not stated) | A: 69.66%; B: 51.41%
* CC(C)OC(=O)[C@@H]1CCCN1 | A: -7.46%; B: -13.9%
* O=C1CCC(CO)(c2ccccc2)CN1 (configuration not stated) | A: 0.2455%; B: -11.2%
* CC(OCc1ccccc1)C(=O)NCCN(C)C (configuration not stated) | A: 12.59%; B: 5.048%
* Cc1cnccc1NCCNC(=O)CCC(F)(F)F | A: 1.073%; B: -9.138%
* Cc1nc[nH]c1C(=O)N(C)CC1CCN(CC(C)C)C1 (configuration not stated) | A: 4.272%; B: 5.635%
* CCC(=O)N1CCN(C(=O)C2CCCCN2CC)CC1 (configuration not stated) | A: 6.83%; B: 14.12%
* Cc1n[nH]c(C)c1NC(=O)C(N)CC(C)C (configuration not stated) | A: -6.34%; B: -10.85%
* CCS(=O)(=O)c1ccc(CN)cc1F | A: 8.32%; B: 11.21%
* CN(CC1(O)CCCC1)c1ccc(C#N)nc1 | A: -3.78%; B: -18.92%
* Cc1noc(CCCC(=O)Nc2cccnc2)n1 | A: 4.596%; B: 9.848%
* Cc1nn(CC(=O)N(C)C)c(=O)c2ccccc12 | A: -0.3001%; B: 53.67%
* CNC1(CO)Cc2ccccc2C1 | A: 18.07%; B: 0.6614%
* NCc1cc2c([nH]c1=O)CCCC2 | A: -99.08%; B: -136.9%
* COCCN(CCCO)Cc1ccco1 | A: 12.12%; B: 0.6606%
* Cc1nnc(NC(=O)c2ccc(C#N)cc2)s1 | A: 6.038%; B: -12.01%
* Cc1n[nH]cc1NC(=O)C1(c2ccc(F)cc2)CC1 | A: 28.26%; B: 5.604%
* Cn1c(=O)n(C)c2cc(CNCCOCCO)ccc21 | A: 10.29%; B: 16.91%
* CC(O)CCc1ccc2c(c1)OCO2 (configuration not stated) | A: 29.92%; B: 48.59%
* O=C1CN(C(=O)CCC(=O)c2ccc(Cl)cc2)CCN1 | A: 1.21%; B: -10.86%
* O=C(NCCCOC(F)F)NCc1ccc(Br)o1 | A: 70.02%; B: 66.47%
* CCn1c(=O)c2ccccc2n(CC)c1=O | A: -1.459%; B: -4.725%
* Cn1cc(C2CSCCN2C(=O)c2ccncc2)cn1 (configuration not stated) | A: 3.434%; B: -8.451%
* CCc1c(C)nc2ncnn2c1N1CCN(C)CC1 | A: 3.144%; B: 1.233%

The first 4 entries again:

| compound | A | B |
|---|---|---|
| `CN(CCc1ccc(Br)cc1)C(=O)CCCN` | 70.64 | 46.93 |
| `CCOc1ccncc1S(N)(=O)=O` | 10.11 | 5.806 |
| `CCO[C@H]1CN(c2nc(-c3ccccc3)no2)C[C@@H]1O` | 56.96 | 41.46 |
| `Clc1ccc(CSc2cnn[nH]2)s1` | 73.44 | 89.09 |